Experimental findings from the supplement of paper PMC12873370 are described below.

SMILES strings stand for the structures. Several values for one entry are separate records, joined by “and”; a condition that tells them apart may be missing. Equal values may be shown once. Some of the results follow. Many values rest on one well or one pass, so single values are uncertain.

One assay deals with MEPP (mouse ovarian epithelium Trp53/Pten KO). Nature of the assay: cell viability relative to untreated (fraction); higher = less growth inhibition. Particulars: 5 µM; 3 days.
`CCC12C=CCN3CC[C@@]4(c5ccc(OC)cc5N(C)[C@H]4[C@@](O)(C(=O)OC)[C@@H]1OC(C)=O)[C@@H]32` (some centres undefined) showed a cell viability of 1.48. Regarding `CN1C2CC(OC(=O)C(CO)c3ccccc3)CC1C(O)C2` (centres undefined), the cell viability stood at 0.783. Still for that read-out and setting: to `COc1cc(C2OCC3C(c4cc(OC)c(O[C@@H]5O[C@H](CO)[C@@H](O)[C@H](O)[C@H]5O)c(OC)c4)OCC23)cc(OC)c1O[C@H]1O[C@@H](CO)[C@H](O)[C@@H](O)[C@@H]1O` (some centres undefined) belongs 0.962; to `CCCCCCCCC(=O)NCc1ccc(O)c(OC)c1`, 1.2. Regarding `Oc1cc(O)cc(/C=C/c2ccc(O)cc2O)c1`, the cell viability is 0.893. As to `C[C@]12CC[C@H](O)C[C@H]1CC[C@@H]1[C@@H]2CC[C@]2(C)[C@@H](c3ccc(=O)oc3)CC[C@]12O`, the cell viability came to 0.981. Regarding `CC[C@H]1CN2CC[C@H]1C[C@H]2[C@H](O)c1ccnc2ccc(OC)cc12`, the cell viability worked out at 1.13.

`C=C1CC[C@H]2[C@@H](/C=C(\C)C(=O)[C@@]3(O)C[C@H](C)[C@H](O)[C@@H]3[C@@H]1O)C2(C)C` returned a cell viability of 1.2. Regarding `COc1cc2c(cc1O)C[C@@H]1NCCc3cc(OC)c(O)c-2c31`, the cell viability came to 0.965. Take `CN1[C@@H]2C[C@@H](OC(=O)[C@H](CO)c3ccccc3)C[C@H]1[C@@H]1O[C@@H]12`: the cell viability is 1.13 and 0.897 and 1. As for `NCCc1c[nH]c2ccc(O)cc12`, the cell viability is 0.978. The compound `COc1cc2c3cc1Oc1c(OC)c(OC)cc4c1[C@@H](Cc1cccc(c1)Oc1ccc(c(O)c1)C[C@@H]3N(C)CC2)N(C)CC4` showed a cell viability of 0.915. As to `C[C@@H]1C[C@@H]([C@H](O)CC2CC(=O)NC(=O)C2)C(=O)[C@@H](C)C1`, the cell viability came out at 0.509. The compound `O=c1cccc2n1C[C@@H]1CNC[C@H]2C1` showed a cell viability of 0.855. The compound `C=C1[C@@H]2CCC3[C@@](CC[C@@H]4[C@H](C(=O)O)C[C@@H](O[C@@H]5O[C@H](CO)[C@@H](OS(=O)(=O)O)[C@H](OS(=O)(=O)O)[C@H]5OC(=O)CC(C)C)C[C@@]34C)(C2)[C@@H]1O` (some centres undefined) showed a cell viability of 0.899. Same read-out and setting: with `COc1cc([C@@H]2c3cc4c(cc3[C@H](O)[C@H]3COC(=O)[C@@H]23)OCO4)cc(OC)c1OC` the figure was 0.638; with `O=C(O)C1CCN1` (centres undefined), 0.971. Same read-out and setting: with `COC1=C[C@@H]2[C@@H]3Cc4ccc(OC)c(O)c4[C@]2(CCN3C)CC1=O` the figure was 1.23 and 1. `CN(C)Cc1c[nH]c2ccccc12` had a cell viability of 0.977. For the compound `CN1[C@@H]2CC[C@H]1C[C@@H](OC(=O)[C@H](CO)c1ccccc1)C2`, the cell viability amounted to 1.29. For the compound `C/C(=C\c1csc(C)n1)[C@@H]1C[C@@H]2O[C@@H]2CCC[C@H](C)[C@H](O)[C@@H](C)C(=O)C(C)(C)[C@@H](O)CC(=O)O1`, the cell viability was 0.753. On the same count and under the same terms, with `CCOc1cc(C=O)ccc1O` the figure was 0.973; with `COc1cc2c3c(c1OC)-c1ccccc1C[C@H]3N(C)CC2`, 1.04.

In turn, `COc1ccc(C[C@H]2NC[C@H](O)[C@H]2OC(C)=O)cc1` yielded a cell viability of 0.351. `CC(=O)O[C@@]12CO[C@@H]1C[C@@H](O)[C@@]1(C)C(=O)[C@H](O)C3=C(C)[C@@H](O)C[C@@](O)([C@@H](OC(=O)c4ccccc4)[C@H]21)C3(C)C` yielded a cell viability of 0.92.

Consider `CC(C)=CCC[C@](C)(O)[C@H]1CC[C@]2(C)[C@@H]1[C@H](O)C[C@@H]1[C@@]3(C)CC[C@H](O[C@@H]4O[C@H](CO)[C@@H](O)[C@H](O)[C@H]4O)C(C)(C)[C@@H]3CC[C@]12C`, for which the cell viability was 0.993.

The test system of a further assay is PREPP (mouse prostate epithelium Trp53/Pten KO). The description is as above. To be noted: 5 µM; 3 days.
In the case of `O=[N+]([O-])C(Br)(CO)CO`, the cell viability was 0.93.

In the case of `C[C@]12CC[C@@H](O)C[C@@H]1CC[C@@H]1[C@@H]2CC[C@]2(C)C(=O)CC[C@@H]12`, the cell viability was found to be 0.696. Still for that read-out and setting: with `CC1=CC(=O)c2c(O)cccc2C1=O` the figure was 0.939; with `CN1[C@@H]2CC[C@H]1C[C@@H](OC(=O)C(CO)c1ccccc1)C2` (some centres undefined), 0.879 and 0.911 and 0.984; with `O=C(O)Cc1cnc[nH]1`, 0.973. The compound `Cc1ccccc1O` gave a cell viability of 0.951. As to `O=c1ccc2ccc3occc3c2o1`, the cell viability is 1.26. The same measure, in the same setting: to `C[C@@H]1CC[C@@]2(OC1)O[C@H]1C[C@H]3[C@@H]4CC=C5C[C@@H](O[C@@H]6O[C@H](CO)[C@@H](O[C@@H]7O[C@@H](C)[C@H](O)[C@@H](O)[C@H]7O)[C@H](O)[C@H]6O[C@@H]6O[C@@H](C)[C@H](O)[C@@H](O)[C@H]6O)CC[C@]5(C)[C@H]4CC[C@]3(C)[C@H]1[C@@H]2C` belongs 0.766; to `CC[C@@]1([C@H]2O[C@H]([C@H]3O[C@@](O)(CO)[C@H](C)C[C@@H]3C)C[C@H]2C)CC[C@H]([C@@]2(C)CC[C@]3(C[C@H](O)[C@@H](C)[C@@H]([C@H](C)[C@H](OC)[C@@H](C)C(=O)O)O3)O2)O1`, 0.615. Still for that read-out and setting: with `C[C@]12CC[C@H](O)CC1=CC[C@@H]1[C@@H]2CC[C@]2(C)C(=O)CC[C@@H]12` the figure was 0.981; with `COC[C@]12CN(C)[C@@H]3[C@@H]4[C@H](OC)[C@H]1[C@@]3([C@@H](OC)C[C@H]2O)[C@@H]1C[C@@]2(O)[C@H](OC(=O)c3ccccc3)[C@@H]1[C@]4(OC(C)=O)[C@@H](O)[C@@H]2OC`, 0.869. With `CCC1=CC2CN3CCc4c([nH]c5ccccc45)C(C(=O)OC)(C2)C13` (centres undefined), the cell viability came out at 0.853.

As to `CCC12C=CCN3CC[C@@]4(c5ccc(OC)cc5N(C)[C@H]4[C@@](O)(C(=O)OC)[C@@H]1OC(C)=O)[C@@H]32` (some centres undefined), the cell viability came out at 0.893.

As to `CN1C2CC(OC(=O)C(CO)c3ccccc3)CC1C(O)C2` (centres undefined), the cell viability worked out at 0.944. In the case of `COc1cc(C2OCC3C(c4cc(OC)c(O[C@@H]5O[C@H](CO)[C@@H](O)[C@H](O)[C@H]5O)c(OC)c4)OCC23)cc(OC)c1O[C@H]1O[C@@H](CO)[C@H](O)[C@@H](O)[C@@H]1O` (some centres undefined), the cell viability amounted to 0.941. Regarding `CCCCCCCCC(=O)NCc1ccc(O)c(OC)c1`, the cell viability stood at 0.811.

In turn, `Oc1cc(O)cc(/C=C/c2ccc(O)cc2O)c1` registered a cell viability of 0.826. `C[C@]12CC[C@H](O)C[C@H]1CC[C@@H]1[C@@H]2CC[C@]2(C)[C@@H](c3ccc(=O)oc3)CC[C@]12O` registered a cell viability of 0.847. The same measure, in the same setting: with `CC[C@H]1CN2CC[C@H]1C[C@H]2[C@H](O)c1ccnc2ccc(OC)cc12` the figure was 1.09. For `C=C1CC[C@H]2[C@@H](/C=C(\C)C(=O)[C@@]3(O)C[C@H](C)[C@H](O)[C@@H]3[C@@H]1O)C2(C)C`, the cell viability was determined as 1.03.

`COc1cc2c(cc1O)C[C@@H]1NCCc3cc(OC)c(O)c-2c31` yielded a cell viability of 0.794.

In the case of `CN1[C@@H]2C[C@@H](OC(=O)[C@H](CO)c3ccccc3)C[C@H]1[C@@H]1O[C@@H]12`, the cell viability is 0.966 and 0.954 and 1.06. The compound `NCCc1c[nH]c2ccc(O)cc12` came in with a cell viability of 0.97. The compound `COc1cc2c3cc1Oc1c(OC)c(OC)cc4c1[C@@H](Cc1cccc(c1)Oc1ccc(c(O)c1)C[C@@H]3N(C)CC2)N(C)CC4` came in with a cell viability of 0.858. For `C[C@@H]1C[C@@H]([C@H](O)CC2CC(=O)NC(=O)C2)C(=O)[C@@H](C)C1`, the cell viability was 0.504.

`O=c1cccc2n1C[C@@H]1CNC[C@H]2C1` showed a cell viability of 0.893.

In turn, `C=C1[C@@H]2CCC3[C@@](CC[C@@H]4[C@H](C(=O)O)C[C@@H](O[C@@H]5O[C@H](CO)[C@@H](OS(=O)(=O)O)[C@H](OS(=O)(=O)O)[C@H]5OC(=O)CC(C)C)C[C@@]34C)(C2)[C@@H]1O` (some centres undefined) had a cell viability of 0.856. `COc1cc([C@@H]2c3cc4c(cc3[C@H](O)[C@H]3COC(=O)[C@@H]23)OCO4)cc(OC)c1OC` showed a cell viability of 0.769. Compound `O=C(O)C1CCN1` (centres undefined) showed a cell viability of 1.07. Turning to `COC1=C[C@@H]2[C@@H]3Cc4ccc(OC)c(O)c4[C@]2(CCN3C)CC1=O`, the cell viability is 0.978 and 0.902. Consider `CN(C)Cc1c[nH]c2ccccc12`, for which the cell viability was found to be 0.932. `CN1[C@@H]2CC[C@H]1C[C@@H](OC(=O)[C@H](CO)c1ccccc1)C2` yielded a cell viability of 0.865. Turning to `C/C(=C\c1csc(C)n1)[C@@H]1C[C@@H]2O[C@@H]2CCC[C@H](C)[C@H](O)[C@@H](C)C(=O)C(C)(C)[C@@H](O)CC(=O)O1`, the cell viability worked out at 0.549.

In turn, `CCOc1cc(C=O)ccc1O` came in with a cell viability of 0.935. Compound `COc1cc2c3c(c1OC)-c1ccccc1C[C@H]3N(C)CC2` yielded a cell viability of 1.01. For the compound `COc1ccc(C[C@H]2NC[C@H](O)[C@H]2OC(C)=O)cc1`, the cell viability is 0.672. Turning to `CC(=O)O[C@@]12CO[C@@H]1C[C@@H](O)[C@@]1(C)C(=O)[C@H](O)C3=C(C)[C@@H](O)C[C@@](O)([C@@H](OC(=O)c4ccccc4)[C@H]21)C3(C)C`, the cell viability was determined as 0.93. In turn, `CC(C)=CCC[C@](C)(O)[C@H]1CC[C@]2(C)[C@@H]1[C@H](O)C[C@@H]1[C@@]3(C)CC[C@H](O[C@@H]4O[C@H](CO)[C@@H](O)[C@H](O)[C@H]4O)C(C)(C)[C@@H]3CC[C@]12C` registered a cell viability of 1.07.
